Results from paper PMC5945891, “Proteomics of Stored Red Blood Cell Membrane and Storage-Induced Microvesicles Reveals the Association of Flotillin-2 With Band 3 Complexes” (Frontiers in Physiology, 2018).
These are yes or no findings as the source states them, for the method shown. Binding seen in cells or lysates may run through a third protein. These calls come from enrichment with a bait or labelling near it, and not all partners need be listed.

The chains behind the UniProt entries cited, without tags or fusion partners. Where a name states a change or a piece, a line headed by the entry shows the natural chain unless it says otherwise.
UniProt P02730: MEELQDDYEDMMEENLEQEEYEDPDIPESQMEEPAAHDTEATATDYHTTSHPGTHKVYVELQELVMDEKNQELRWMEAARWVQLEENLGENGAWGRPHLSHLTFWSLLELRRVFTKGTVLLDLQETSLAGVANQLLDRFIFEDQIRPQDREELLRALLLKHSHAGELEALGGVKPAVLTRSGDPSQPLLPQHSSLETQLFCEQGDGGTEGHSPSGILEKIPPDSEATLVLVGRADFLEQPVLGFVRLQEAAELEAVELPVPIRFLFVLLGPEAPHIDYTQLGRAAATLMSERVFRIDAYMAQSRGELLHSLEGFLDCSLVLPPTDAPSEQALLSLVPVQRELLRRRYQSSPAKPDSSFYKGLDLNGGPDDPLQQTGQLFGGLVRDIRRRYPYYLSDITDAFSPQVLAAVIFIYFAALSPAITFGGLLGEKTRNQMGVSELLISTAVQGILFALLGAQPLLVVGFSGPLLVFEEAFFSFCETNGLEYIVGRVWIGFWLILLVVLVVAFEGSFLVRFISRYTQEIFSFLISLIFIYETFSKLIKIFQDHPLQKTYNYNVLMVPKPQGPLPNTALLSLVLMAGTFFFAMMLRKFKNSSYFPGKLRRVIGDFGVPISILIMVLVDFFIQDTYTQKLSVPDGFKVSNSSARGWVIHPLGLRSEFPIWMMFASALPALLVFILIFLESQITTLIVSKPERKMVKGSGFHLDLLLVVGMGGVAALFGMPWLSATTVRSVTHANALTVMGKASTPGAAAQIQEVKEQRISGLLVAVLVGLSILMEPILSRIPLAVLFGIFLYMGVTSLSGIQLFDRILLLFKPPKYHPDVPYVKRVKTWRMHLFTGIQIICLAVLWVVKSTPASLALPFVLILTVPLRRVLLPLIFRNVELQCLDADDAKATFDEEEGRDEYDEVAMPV
UniProt P53396: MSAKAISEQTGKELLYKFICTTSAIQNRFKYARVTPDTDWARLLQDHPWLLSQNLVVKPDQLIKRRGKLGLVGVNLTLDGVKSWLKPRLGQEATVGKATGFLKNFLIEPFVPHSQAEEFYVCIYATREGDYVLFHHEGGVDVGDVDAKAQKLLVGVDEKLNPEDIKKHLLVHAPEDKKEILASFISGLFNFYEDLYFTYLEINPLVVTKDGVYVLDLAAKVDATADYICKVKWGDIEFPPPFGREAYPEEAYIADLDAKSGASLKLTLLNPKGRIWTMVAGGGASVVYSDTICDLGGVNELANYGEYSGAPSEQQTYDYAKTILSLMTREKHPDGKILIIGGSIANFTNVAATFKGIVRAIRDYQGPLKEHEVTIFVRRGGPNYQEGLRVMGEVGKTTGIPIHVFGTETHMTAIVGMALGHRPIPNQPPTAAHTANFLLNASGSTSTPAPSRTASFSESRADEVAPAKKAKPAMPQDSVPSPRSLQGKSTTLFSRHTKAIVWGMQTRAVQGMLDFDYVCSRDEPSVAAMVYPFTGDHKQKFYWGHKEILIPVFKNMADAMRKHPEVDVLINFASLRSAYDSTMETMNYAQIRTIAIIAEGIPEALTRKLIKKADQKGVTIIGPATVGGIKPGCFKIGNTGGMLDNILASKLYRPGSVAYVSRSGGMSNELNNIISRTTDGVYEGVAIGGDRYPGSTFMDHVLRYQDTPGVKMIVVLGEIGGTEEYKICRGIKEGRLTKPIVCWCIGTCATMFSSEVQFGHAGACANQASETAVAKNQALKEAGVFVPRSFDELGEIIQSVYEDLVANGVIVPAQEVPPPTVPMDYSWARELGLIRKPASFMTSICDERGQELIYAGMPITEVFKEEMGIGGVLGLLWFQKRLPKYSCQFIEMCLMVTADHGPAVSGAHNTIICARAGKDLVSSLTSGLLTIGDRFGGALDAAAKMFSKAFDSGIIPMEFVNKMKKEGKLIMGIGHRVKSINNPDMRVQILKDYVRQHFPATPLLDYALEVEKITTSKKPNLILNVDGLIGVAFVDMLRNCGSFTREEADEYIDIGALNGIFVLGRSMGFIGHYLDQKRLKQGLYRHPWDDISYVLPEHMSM
UniProt P35611: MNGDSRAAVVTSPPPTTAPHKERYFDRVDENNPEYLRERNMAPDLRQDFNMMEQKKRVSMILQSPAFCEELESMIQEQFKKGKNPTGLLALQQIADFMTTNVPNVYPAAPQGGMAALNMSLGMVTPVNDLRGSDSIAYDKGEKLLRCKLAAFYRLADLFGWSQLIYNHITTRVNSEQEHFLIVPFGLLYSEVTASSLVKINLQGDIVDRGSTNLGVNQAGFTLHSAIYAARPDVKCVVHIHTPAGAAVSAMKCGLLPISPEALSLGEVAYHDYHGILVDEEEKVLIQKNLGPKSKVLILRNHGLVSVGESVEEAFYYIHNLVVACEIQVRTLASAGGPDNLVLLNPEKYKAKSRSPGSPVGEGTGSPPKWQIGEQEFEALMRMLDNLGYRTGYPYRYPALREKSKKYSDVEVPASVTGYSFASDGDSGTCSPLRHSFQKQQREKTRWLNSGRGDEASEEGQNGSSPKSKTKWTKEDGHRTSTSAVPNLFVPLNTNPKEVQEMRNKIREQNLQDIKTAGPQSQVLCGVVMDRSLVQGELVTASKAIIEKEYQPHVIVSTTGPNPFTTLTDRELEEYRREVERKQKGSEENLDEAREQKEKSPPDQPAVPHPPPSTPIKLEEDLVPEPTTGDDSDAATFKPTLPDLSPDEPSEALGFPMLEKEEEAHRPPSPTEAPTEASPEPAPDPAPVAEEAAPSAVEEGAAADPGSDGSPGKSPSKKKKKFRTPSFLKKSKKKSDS
UniProt P02042: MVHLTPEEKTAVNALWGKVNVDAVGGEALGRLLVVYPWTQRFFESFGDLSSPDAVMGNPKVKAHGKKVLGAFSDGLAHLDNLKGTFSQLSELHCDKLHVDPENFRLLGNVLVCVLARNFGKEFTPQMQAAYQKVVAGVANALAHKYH
UniProt P61224: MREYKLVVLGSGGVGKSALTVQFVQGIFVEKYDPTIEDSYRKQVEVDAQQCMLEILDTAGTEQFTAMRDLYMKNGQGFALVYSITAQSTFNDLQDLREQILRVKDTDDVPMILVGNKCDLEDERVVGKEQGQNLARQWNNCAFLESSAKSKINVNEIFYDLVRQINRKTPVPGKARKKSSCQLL
UniProt P61088: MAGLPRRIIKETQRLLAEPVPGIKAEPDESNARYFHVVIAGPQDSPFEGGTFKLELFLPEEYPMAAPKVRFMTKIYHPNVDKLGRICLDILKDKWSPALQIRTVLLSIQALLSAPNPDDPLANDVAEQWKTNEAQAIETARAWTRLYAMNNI

Target: band 3 (human (endogenous in RBCs)) (UniProt P02730)
Test: affinity purification with mass spectrometry; band 3 complexes captured from 1% deoxycholate extracts of RBC membranes (short-stored, about day 6, and long-stored, about day 42, ECs; bags A-C) on magnetic beads coated with anti-band 3 BRIC 6 and BRIC 170, 1 h at 4°C; eluates separated by SDS-PAGE, digested in gel, LC-MS/MS; presence or absence only

| Molecule | binding |
| --- | --- |
| ATP-citrate synthase (from UniProt P53396 1-1101) (enzyme) | binds |
| Alpha-adducin (from UniProt P35611 1-737) | binds |
| Hemoglobin subunit delta (from UniProt P02042 1-147) | binds |
| Ras-related protein Rap-1b (from UniProt P61224 1-184) | binds |
| Ubiquitin-conjugating enzyme E2N (from UniProt P61088 1-152) | binds |
| Adenylosuccinate lyase (enzyme, UniProt P30566 1-484) MAAGGDHGSPDSYRSPLASRYASPEMCFVFSDRYKFRTWRQLWLWLAEAEQTLGLPITDEQIQEMKSNLENIDFKMAAEEEKRLRHDVMAHVHTFGHCCPKAAGIIHLGATSCYVGDNTDLIILRNALDLLLPKLARVISRLADFAKERASLPTLGFTHFQPAQLTTVGKRCCLWIQDLCMDLQNLKRVRDDLRFRGVKGTTGTQASFLQLFEGDDHKVEQLDKMVTEKAGFKRAFIITGQTYTRKVDIEVLSVLASLGASVHKICTDIRLLANLKEMEEPFEKQQIGSSAMPYKRNPMRSERCCSLARHLMTLVMDPLQTASVQWFERTLDDSANRRICLAEAFLTADTILNTLQNISEGLVVYPKVIERRIRQELPFMATENIIMAMVKAGGSRQDCHEKIRVLSQQAASVVKQEGGDNDLIERIQVDAYFSPIHSQLDHLLDPSSFTGRASQQVQRFLEEEVYPLLKPYESVMKVKAELCL | binds |
| Ras-related protein Rap-2b (protein, UniProt P61225 1-183) MREYKVVVLGSGGVGKSALTVQFVTGSFIEKYDPTIEDFYRKEIEVDSSPSVLEILDTAGTEQFASMRDLYIKNGQGFILVYSLVNQQSFQDIKPMRDQIIRVKRYERVPMILVGNKVDLEGEREVSYGEGKALAEEWSCPFMETSAKNKASVDELFAEIVRQMNYAAQPNGDEGCCSACVIL | binds |
| Flotillin-2 (natural protein, human (endogenous in RBCs), UniProt Q14254 1-428, looked up, flotillin-2, human, SwissProt Q14254; source: endogenous, membranes of stored human RBCs and storage-induced microvesicles, 1% deoxycholate extract) MGNCHTVGPNEALVVSGGCCGSDYKQYVFGGWAWAWWCISDTQRISLEIMTLQPRCEDVETAEGVALTVTGVAQVKIMTEKELLAVACEQFLGKNVQDIKNVVLQTLEGHLRSILGTLTVEQIYQDRDQFAKLVREVAAPDVGRMGIEILSFTIKDVYDKVDYLSSLGKTQTAVVQRDADIGVAEAERDAGIREAECKKEMLDVKFMADTKIADSKRAFELQKSAFSEEVNIKTAEAQLAYELQGAREQQKIRQEEIEIEVVQRKKQIAVEAQEILRTDKELIATVRRPAEAEAHRIQQIAEGEKVKQVLLAQAEAEKIRKIGEAEAAVIEAMGKAEAERMKLKAEAYQKYGDAAKMALVLEALPQIAAKIAAPLTKVDEIVVLSGDNSKVTSEVNRLLAELPASVHALTGVDLSKIPLIKKATGVQV | binds |
| Tropomodulin-1 (protein, UniProt P28289 1-359) MSYRRELEKYRDLDEDEILGALTEEELRTLENELDELDPDNALLPAGLRQKDQTTKAPTGPFKREELLDHLEKQAKEFKDREDLVPYTGEKRGKVWVPKQKPLDPVLESVTLEPELEEALANASDAELCDIAAILGMHTLMSNQQYYQALSSSSIMNKEGLNSVIKPTQYKPVPDEEPNSTDVEETLERIKNNDPKLEEVNLNNIRNIPIPTLKAYAEALKENSYVKKFSIVGTRSNDPVAYALAEMLKENKVLKTLNVESNFISGAGILRLVEALPYNTSLVEMKIDNQSQPLGNKVEMEIVSMLEKNATLLKFGYHFTQQGPRLRASNAMMNNNDLVRKRRLADLTGPIIPKCRSGV | binds |
| Phosphatidylinositol-5-phosphate 4-kinase (enzyme, UniProt P48426 1-406) MATPGNLGSSVLASKTKTKKKHFVAQKVKLFRASDPLLSVLMWGVNHSINELSHVQIPVMLMPDDFKAYSKIKVDNHLFNKENMPSHFKFKEYCPMVFRNLRERFGIDDQDFQNSLTRSAPLPNDSQARSGARFHTSYDKRYIIKTITSEDVAEMHNILKKYHQYIVECHGITLLPQFLGMYRLNVDGVEIYVIVTRNVFSHRLSVYRKYDLKGSTVAREASDKEKAKELPTLKDNDFINEGQKIYIDDNNKKVFLEKLKKDVEFLAQLKLMDYSLLVGIHDVERAEQEEVECEENDGEEEGESDGTHPVGTPPDSPGNTLNSSPPLAPGEFDPNIDVYGIKCHENSPRKEVYFMAIIDILTHYDAKKKAAHAAKTVKHGAGAEISTVNPEQYSKRFLDFIGHILT | binds |
